Laboratory results taken from US20190100600A1.
These are yes or no findings as the source states them, for the method shown. Some results given as binding are weak or reduced against the parent protein; the word gives no strength. Where a sequence is shown, tags or fusion partners need not be part of it.

Sequences of proteins named here, by UniProt entry; tags and fusion partners are left off. Residues count along the entry.
UniProt Q00604, residues 25-133: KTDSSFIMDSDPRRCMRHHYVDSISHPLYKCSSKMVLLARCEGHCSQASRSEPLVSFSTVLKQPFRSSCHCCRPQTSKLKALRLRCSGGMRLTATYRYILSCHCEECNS

Molecular target: T1, purified recombinant LGR5 ectodomain-IgG-Fc fusion (human) (UniProt O75473)
T1 sequence: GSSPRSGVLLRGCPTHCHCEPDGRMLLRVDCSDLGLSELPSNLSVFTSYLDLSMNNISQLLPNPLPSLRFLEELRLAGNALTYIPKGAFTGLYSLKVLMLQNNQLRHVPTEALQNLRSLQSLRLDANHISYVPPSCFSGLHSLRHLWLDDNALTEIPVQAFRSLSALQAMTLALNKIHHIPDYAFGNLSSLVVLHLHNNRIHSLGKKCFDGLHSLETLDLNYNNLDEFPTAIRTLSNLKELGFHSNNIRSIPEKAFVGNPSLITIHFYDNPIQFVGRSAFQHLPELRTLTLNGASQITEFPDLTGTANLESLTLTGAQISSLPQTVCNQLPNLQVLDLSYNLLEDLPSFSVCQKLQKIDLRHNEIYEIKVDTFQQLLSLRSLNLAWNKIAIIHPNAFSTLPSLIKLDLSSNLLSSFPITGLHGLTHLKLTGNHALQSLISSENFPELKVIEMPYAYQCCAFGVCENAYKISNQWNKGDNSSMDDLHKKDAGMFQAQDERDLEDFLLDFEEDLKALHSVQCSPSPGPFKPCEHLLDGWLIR
Assay: ELISA of the ternary complex: Norrin preincubated with LGR5-Fc, co-receptor-Fc coated

- binding: binds
Substance: Norrin (from UniProt Q00604 25-133) (ligand)
